PubChem BioAssay AID743121, NCATS, 2013

- Aim: 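Genes whose silencing strengthens cell killing by camptothecin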 (primary screen)
- System: MDA-MB-231 cells, a human breast cancer line
- Reagent: single siRNA against human genes, 20 nM siRNA (0.8 pmol per well)
- Timing: 120 h (drug added 48 h after transfection, read 72 h later)
- Conditions: camptothecin 20 nM (about EC30) for 72 h; vehicle 0.1% DMSO in parallel plates
- Read-out: 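Cell viability by ATP luminescence (CellTiter-Glo) as % of non-targeting siRNA wells, and the log2 ratio of viability without drug over viability with camptothecin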
- Scale: log2 vehicle/camptothecin viability: higher = stronger sensitisation to camptothecin; viability with camptothecin and viability without drug: higher = more viable cells
- Call rule: 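Each gene scored by redundant siRNA activity (RSA) over its individual siRNA ratios; a gene is called active at p < 0.001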
Shown is one part, drawn at random, of about 26,000 reagents tested. Of all reagents, 167 (0.63%) were called active. 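Calls are per gene from RSA p-values that are not deposited; an individual active-marked siRNA can sensitise only weakly.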 Reagents against one gene are numbered here. No sequences are given here.

| gene knocked down | siRNA no. | log2 vehicle/camptothecin viability | viability with camptothecin (% of control) | viability without drug (% of control) | Outcome |
| --- | --- | --- | --- | --- | --- |
| KLK7 | 1 | -0.263 | 63.6 | 53 | inactive |
| KLK7 | 2 | -0.00553 | 74.8 | 74.5 | inactive |
| KLK7 | 3 | -0.0639 | 101 | 96.2 | inactive |
| KLK7 | 4 | -0.443 | 49 | 36 | inactive |
| ENDOD1 | 1 | -0.158 | 91.2 | 81.8 | inactive |
| ENDOD1 | 2 | 0.109 | 89 | 95.9 | inactive |
| ENDOD1 | 3 | 0.586 | 80.3 | 121 | inactive |
| HEYL | 1 | -0.939 | 32.2 | 16.8 | inactive |
| HEYL | 2 | -0.315 | 97.9 | 78.7 | inactive |
| HEYL | 3 | -0.0384 | 92.7 | 90.3 | inactive |
| HEYL | 4 | -0.517 | 93.6 | 65.4 | inactive |
| SSC4D | 1 | 0.398 | 23 | 30.3 | inactive |
| SSC4D | 2 | 0.0212 | 50.7 | 51.4 | inactive |
| SSC4D | 3 | -0.102 | 98.3 | 91.6 | inactive |
| TCF21 | 1 | -0.276 | 89.2 | 73.7 | inactive |
| TCF21 | 2 | -0.241 | 89.3 | 75.6 | inactive |
| TCF21 | 3 | 0.753 | 57.8 | 97.4 | inactive |
| TCF21 | 4 | 0.168 | 43.6 | 49 | inactive |
| TCF21 | 5 | -0.0907 | 82.1 | 77.1 | inactive |
| TCF21 | 6 | -0.307 | 41 | 33.1 | inactive |
| TCF21 | 7 | -0.289 | 61.3 | 50.2 | inactive |
| TCF21 | 8 | -0.0215 | 68 | 67 | inactive |
| TDP2 | 1 | -0.0422 | 97.8 | 95 | inactive |
| TDP2 | 2 | -0.802 | 41.3 | 23.7 | inactive |
| TDP2 | 3 | -0.0228 | 74.9 | 73.8 | inactive |
| TDP2 | 4 | 0.185 | 95 | 108 | inactive |
| GJA3 | 1 | -0.532 | 49.3 | 34.1 | inactive |
| GJA3 | 2 | -0.0392 | 93.1 | 90.6 | inactive |
| GJA3 | 3 | -0.218 | 77.5 | 66.6 | inactive |
| GJA3 | 4 | -0.566 | 51.4 | 34.7 | inactive |
| RGS7 | 1 | -0.0492 | 43.7 | 42.3 | inactive |
| RGS7 | 2 | -0.0646 | 21.3 | 20.4 | inactive |
| RGS7 | 3 | -0.517 | 119 | 83.1 | inactive |
| RGS7 | 4 | -0.417 | 104 | 77.6 | inactive |
| DZANK1 | 1 | 0.419 | 26.3 | 35.2 | inactive |
| DZANK1 | 2 | -0.535 | 88.1 | 60.8 | inactive |
| DZANK1 | 3 | 0.222 | 75.6 | 88.1 | inactive |
| METTL2B | 1 | -0.183 | 117 | 103 | inactive |
| METTL2B | 2 | -0.341 | 84.9 | 67.1 | inactive |
| METTL2B | 3 | 0.669 | 51.5 | 81.9 | inactive |
| METTL2B | 4 | -0.055 | 73.1 | 70.4 | inactive |
| PPP2CA | 1 | 0.624 | 65.4 | 101 | inactive |
| PPP2CA | 2 | 0.423 | 77.3 | 104 | inactive |
| PPP2CA | 3 | -0.101 | 69.2 | 64.5 | inactive |
| PPP2CA | 4 | -0.136 | 69.2 | 63 | inactive |

11 of these entries, set out differently.
RGS7 #2 → log2 vehicle/camptothecin viability = -0.0646; viability with camptothecin (% of control) = 21.3; viability without drug (% of control) = 20.4; Outcome = inactive
RGS7 #3 → log2 vehicle/camptothecin viability = -0.517; viability with camptothecin (% of control) = 119; viability without drug (% of control) = 83.1; Outcome = inactive
RGS7 #4 → log2 vehicle/camptothecin viability = -0.417; viability with camptothecin (% of control) = 104; viability without drug (% of control) = 77.6; Outcome = inactive
DZANK1 #1 → log2 vehicle/camptothecin viability = 0.419; viability with camptothecin (% of control) = 26.3; viability without drug (% of control) = 35.2; Outcome = inactive
DZANK1 #2 → log2 vehicle/camptothecin viability = -0.535; viability with camptothecin (% of control) = 88.1; viability without drug (% of control) = 60.8; Outcome = inactive
DZANK1 #3 → log2 vehicle/camptothecin viability = 0.222; viability with camptothecin (% of control) = 75.6; viability without drug (% of control) = 88.1; Outcome = inactive
METTL2B #1 → log2 vehicle/camptothecin viability = -0.183; viability with camptothecin (% of control) = 117; viability without drug (% of control) = 103; Outcome = inactive
METTL2B #2 → log2 vehicle/camptothecin viability = -0.341; viability with camptothecin (% of control) = 84.9; viability without drug (% of control) = 67.1; Outcome = inactive
METTL2B #3 → log2 vehicle/camptothecin viability = 0.669; viability with camptothecin (% of control) = 51.5; viability without drug (% of control) = 81.9; Outcome = inactive
METTL2B #4 → log2 vehicle/camptothecin viability = -0.055; viability with camptothecin (% of control) = 73.1; viability without drug (% of control) = 70.4; Outcome = inactive
PPP2CA #1 → log2 vehicle/camptothecin viability = 0.624; viability with camptothecin (% of control) = 65.4; viability without drug (% of control) = 101; Outcome = inactive

The list goes on.
| gene knocked down | siRNA no. | log2 vehicle/camptothecin viability | viability with camptothecin (% of control) | viability without drug (% of control) | Outcome |
| --- | --- | --- | --- | --- | --- |
| STK3 | 1 | -0.0351 | 93.4 | 91.2 | inactive |
| STK3 | 2 | -0.475 | 66.6 | 47.9 | inactive |
| STK3 | 3 | -0.674 | 79.3 | 49.7 | inactive |
| STK3 | 4 | -0.31 | 109 | 87.8 | inactive |
| PFN2 | 1 | -0.278 | 103 | 84.6 | inactive |
| PFN2 | 2 | 0.00348 | 89.5 | 89.7 | inactive |
| PFN2 | 3 | -0.214 | 118 | 102 | inactive |
| PFN2 | 4 | -0.19 | 110 | 96.3 | inactive |
| MMP7 | 1 | -0.293 | 30.7 | 25.1 | inactive |
| MMP7 | 2 | -0.497 | 78.1 | 55.4 | inactive |
| MMP7 | 3 | -0.408 | 93.2 | 70.2 | inactive |
| MMP7 | 4 | 0.0168 | 95.9 | 97.1 | inactive |
| KMT2A | 1 | 0.335 | 74.5 | 94 | inactive |
| KMT2A | 2 | -0.171 | 78.6 | 69.8 | inactive |
| KMT2A | 3 | -0.191 | 45.5 | 39.9 | inactive |
| IL20RB | 1 | -0.0828 | 115 | 108 | inactive |
| IL20RB | 2 | 0.137 | 52.4 | 57.6 | inactive |
| IL20RB | 3 | 0.501 | 19.1 | 27 | inactive |
| IL20RB | 4 | -0.463 | 77.1 | 55.9 | inactive |
| TAS1R2 | 1 | 0.103 | 15.5 | 16.7 | inactive |
| TAS1R2 | 2 | -0.133 | 38.3 | 34.9 | inactive |
| TAS1R2 | 3 | -0.0657 | 96.2 | 91.9 | inactive |
| TAS1R2 | 4 | -0.267 | 50.3 | 41.8 | inactive |
